Source: patent publication US7767693B2, “Hsp90 family protein inhibitors” (Kyowa Hakko Kirin Co., Ltd., priority 2003, dated 2010)
Some results were stated once for a whole list of compounds, not compound by compound.

Target: T1, Human N-terminal recombinant Hsp90 protein (region of amino acids 9 to 236) (Homo sapiens, UniProt P07900)
T1 construct: region of amino acids 9 to 236; made in house
Assay: Hsp90 Protein Binding Assay
Conditions: at concentrations below 10 μmol/L; competition with biotinylated Radicicol 0.1 μmol/L, immobilized Hsp90, time-resolved fluorescence

2-[2-(1,3-benzodioxol-5-yl)-6-ethyl-3,5-dihydroxyphenyl]-N-(2-hydroxyethyl)-N-(2-methoxyethyl)-acetamide [Compound 158]
inhibited the binding of biotinylated Radicicol to the Hsp90 protein: more than 30%

2-[2-(3,4-dimethoxybenzoyl)-6-ethyl-3,5-dihydroxyphenyl]-1-[4-(3-hydroxyphenyl)piperazin-1-yl]ethanone [Compound 43]
inhibited the binding of biotinylated Radicicol to the Hsp90 protein: more than 30%

2-{2-[2-ethyl-3,5-dihydroxy-6-(4-methoxy-benzoyl)phenyl]acetyl}-1-[2-(hydroxymethyl)pyrrolidin-1-yl]ethanone [Compound 98]
inhibited the binding of biotinylated Radicicol to the Hsp90 protein: more than 30%

COCCc1cc(O)cc(O)c1C(=O)c1ccccc1 [Compound 1, 2,4-dihydroxy-6-(2-methoxyethyl)phenyl=phenyl=ketone]
inhibited the binding of biotinylated Radicicol to the Hsp90 protein: more than 30%

COCCc1c(Br)c(O)cc(O)c1C(=O)c1ccccc1 [Compound 2, 5-bromo-2,4-dihydroxy-6-(2-methoxyethyl)phenyl=phenyl=ketone]
inhibited the binding of biotinylated Radicicol to the Hsp90 protein: more than 30%

COCCc1c(C(C)=O)c(O)cc(O)c1C(=O)c1ccccc1 [Compound 4, 5-acetyl-2,4-dihydroxy-6-(2-methoxyethyl)phenyl=phenyl=ketone]
inhibited the binding of biotinylated Radicicol to the Hsp90 protein: more than 30%

CCc1c(O)cc(O)c(C(=O)c2ccccc2)c1CC(=O)OC [Compound 5, methyl 2-benzoyl-6-ethyl-3,5-dihydroxy-phenylacetate]
inhibited the binding of biotinylated Radicicol to the Hsp90 protein: more than 30%

CCc1c(O)cc(O)c(C(=O)c2cccc(OC)c2)c1CC(=O)OC [Compound 6, methyl 2-ethyl-3,5-dihydroxy-6-(3-methoxy-benzoyl)phenylacetate]
inhibited the binding of biotinylated Radicicol to the Hsp90 protein: more than 30%

CCc1c(O)cc(O)c(C(=O)c2ccccc2)c1CCOC [Compound 7, 5-ethyl-2,4-dihydroxy-6-(2-methoxyethyl)phenyl=phenyl=ketone]
inhibited the binding of biotinylated Radicicol to the Hsp90 protein: more than 30%

CCc1c(O)cc(O)c(C(=O)c2ccc(OC)cc2)c1CC(=O)OC [Compound 8, methyl 2-ethyl-3,5-dihydroxy-6-(4-methoxy-benzoyl)phenylacetate]
inhibited the binding of biotinylated Radicicol to the Hsp90 protein: more than 30%

CCc1c(O)cc(O)c(C(=O)c2ccc(OC)cc2)c1CCOC [Compound 9, 5-ethyl-2,4-dihydroxy-6-(2-methoxyethyl)-phenyl=4-methoxyphenyl=ketone]
inhibited the binding of biotinylated Radicicol to the Hsp90 protein: more than 30%

CCc1c(O)cc(O)c(C(=O)c2ccc(OC)cc2)c1CC(=O)N(C)CCOC [Compound 10, 2-[2-ethyl-3,5-dihydroxy-6-(4-methoxy-benzoyl)phenyl]-N-(2-methoxyethyl)-N-methylacetamide]
inhibited the binding of biotinylated Radicicol to the Hsp90 protein: more than 30%

CCc1c(O)cc(O)c(C(=O)c2ccc([N+](=O)[O-])cc2)c1CCOC [Compound 11, 5-ethyl-2,4-dihydroxy-6-(2-methoxyethyl)-phenyl=4-nitrophenyl=ketone]
inhibited the binding of biotinylated Radicicol to the Hsp90 protein: more than 30%

CCc1c(O)cc(O)c(C(=O)c2ccc(OC)cc2)c1CCOCCOC [Compound 12, 5-ethyl-2,4-dihydroxy-6-[2-(2-methoxyethoxy)-ethyl]phenyl=4-methoxyphenyl=ketone]
inhibited the binding of biotinylated Radicicol to the Hsp90 protein: more than 30%

CCc1c(O)cc(O)c(C(=O)c2ccc(OC)cc2)c1CC(=O)N(CCO)CCO [Compound 13, 2-[2-ethyl-3,5-dihydroxy-6-(4-methoxy-benzoyl)phenyl]-N,N-bis(2-hydroxyethyl)acetamide]
inhibited the binding of biotinylated Radicicol to the Hsp90 protein: more than 30%

CCc1c(O)cc(O)c(C(=O)c2ccc(OC)cc2)c1CC(=O)N(C)CCO [Compound 14, 2-[2-ethyl-3,5-dihydroxy-6-(4-methoxy-benzoyl)phenyl]-N-(2-hydroxyethyl)-N-methylacetamide]
inhibited the binding of biotinylated Radicicol to the Hsp90 protein: more than 30%

CCc1c(O)cc(O)c(C(=O)c2ccc(OC)cc2)c1CC(=O)N1CCN(c2ccccc2C#N)CC1 [Compound 17, 2-(4-{2-[2-ethyl-3,5-dihydroxy-6-(4-methoxy-benzoyl)phenyl]acetyl}piperazin-1-yl)benzenecarbonitrile]
inhibited the binding of biotinylated Radicicol to the Hsp90 protein: more than 30%

CCc1c(O)cc(O)c(C(=O)c2ccc(OC)cc2)c1CC(=O)N1CCCC(O)C1 (stereo not drawn) [Compound 21, 2-[2-ethyl-3,5-dihydroxy-6-(4-methoxy-benzoyl)phenyl]-1-(3-hydroxypiperidino)ethanone]
inhibited the binding of biotinylated Radicicol to the Hsp90 protein: more than 30%

CCc1c(O)cc(O)c(C(=O)c2ccc(OC)cc2)c1CC(=O)N1CCCC(CO)C1 (stereo not drawn) [Compound 22, 2-[2-ethyl-3,5-dihydroxy-6-(4-methoxy-benzoyl)phenyl]-1-[3-(hydroxymethyl)piperidino]ethanone]
inhibited the binding of biotinylated Radicicol to the Hsp90 protein: more than 30%

CCc1c(O)cc(O)c(C(=O)c2ccc(OC)cc2)c1CC(=O)N1CCCC(C(N)=O)C1 (stereo not drawn) [Compound 23, 1-{2-[2-ethyl-3,5-dihydroxy-6-(4-methoxy-benzoyl)phenyl]acetyl}piperidine-3-carboxamide]
inhibited the binding of biotinylated Radicicol to the Hsp90 protein: more than 30%

CCc1c(O)cc(O)c(C(=O)c2ccc(OC)cc2)c1CC(=O)N1CCC(C(N)=O)CC1 [Compound 24, 1-{2-[2-ethyl-3,5-dihydroxy-6-(4-methoxy-benzoyl)phenyl]acetyl}piperidine-4-carboxamide]
inhibited the binding of biotinylated Radicicol to the Hsp90 protein: more than 30%

CCc1c(O)cc(O)c(C(=O)c2ccc(OC)cc2)c1CC(=O)N1CCC(O)C1 (stereo not drawn) [Compound 25, 2-[2-ethyl-3,5-dihydroxy-6-(4-methoxy-benzoyl)phenyl]-1-(3-hydroxypyrrolidin-1-yl)ethanone]
inhibited the binding of biotinylated Radicicol to the Hsp90 protein: more than 30%

CCc1c(O)cc(O)c(C(=O)c2ccc(OC)cc2)c1CC(=O)N1CCN(c2ccccc2)CC1 [Compound 30]
inhibited the binding of biotinylated Radicicol to the Hsp90 protein: more than 30%

CCc1c(O)cc(O)c(C(=O)c2ccc(OC)cc2)c1CC(=O)N1CCC(O)(c2ccccc2)CC1 [Compound 31, 2-[2-ethyl-3,5-dihydroxy-6-(4-methoxy-benzoyl)phenyl]-1-(4-hydroxy-4-phenylpiperidino)ethanone]
inhibited the binding of biotinylated Radicicol to the Hsp90 protein: more than 30%

CCc1c(O)cc(O)c(C(=O)c2ccc(OC)cc2)c1CC(=O)N1CCN(c2ncccn2)CC1 [Compound 32, 2-[2-ethyl-3,5-dihydroxy-6-(4-methoxybenzoyl)-phenyl]-1-[4-(pyrimidin-2-yl)piperazin-1-yl]ethanone]
inhibited the binding of biotinylated Radicicol to the Hsp90 protein: more than 30%

CCc1c(O)cc(O)c(C(=O)c2ccc(OC)cc2)c1CC(=O)N(CCO)CCOC [Compound 33, 2-[2-ethyl-3,5-dihydroxy-6-(4-methoxybenzoyl)-phenyl]-N-(2-hydroxyethyl)-N-(2-methoxyethyl)acetamide]
inhibited the binding of biotinylated Radicicol to the Hsp90 protein: more than 30%

CCc1c(O)cc(O)c(C(=O)c2ccc(OC)cc2)c1CC(=O)N1CCN(c2cccc(OC)c2)CC1 [Compound 35, 2-[2-ethyl-3,5-dihydroxy-6-(4-methoxybenzoyl)-phenyl]-1-[4-(3-methoxyphenyl)piperazin-1-yl]ethanone]
inhibited the binding of biotinylated Radicicol to the Hsp90 protein: more than 30%

CCc1c(O)cc(O)c(C(=O)c2ccc(OC)cc2)c1CC(=O)N1CCN(C(C)=O)CC1 [Compound 36, 1-acetyl-4-{2-[2-ethyl-3,5-dihydroxy-6-(4-methoxybenzoyl)phenyl]acetyl}piperazine]
inhibited the binding of biotinylated Radicicol to the Hsp90 protein: more than 30%

CCc1c(O)cc(O)c(C(=O)c2ccc(OC)cc2)c1CC(=O)N1CCN(C)CC1 [Compound 37, 2-[2-ethyl-3,5-dihydroxy-6-(4-methoxybenzoyl)phenyl]-1-(4-methylpiperazin-1-yl)ethanone]
inhibited the binding of biotinylated Radicicol to the Hsp90 protein: more than 30%

CCc1c(O)cc(O)c(C(=O)c2ccc(OC)cc2)c1CC(=O)N1CCc2cc(OC)c(OC)cc2C1 [Compound 38, 2-[2-ethyl-3,5-dihydroxy-6-(4-methoxybenzoyl)-phenyl]-1-(6,7-dimethoxy-1,2,3,4-tetrahydroisoquinolin-2-yl)ethanone]
inhibited the binding of biotinylated Radicicol to the Hsp90 protein: more than 30%

CCc1c(O)cc(O)c(C(=O)c2ccc(OC)cc2)c1CC(=O)N(C)Cc1ccco1 [Compound 39, 2-[2-ethyl-3,5-dihydroxy-6-(4-methoxybenzoyl)-phenyl]-N-(furan-2-ylmethyl)-N-methylacetamide]
inhibited the binding of biotinylated Radicicol to the Hsp90 protein: more than 30%

CCc1c(O)cc(O)c(C(=O)c2ccc(OC)cc2)c1CC(=O)N1CCN(CCO)CC1 [Compound 40, 2-[2-ethyl-3,5-dihydroxy-6-(4-methoxybenzoyl)-phenyl]-1-[4-(2-hydroxyethyl)piperazin-1-yl]ethanone]
inhibited the binding of biotinylated Radicicol to the Hsp90 protein: more than 30%

CCc1c(O)cc(O)c(C(=O)c2ccc(OC)c(OC)c2)c1CC(=O)N1CCN(c2ccccc2)CC1 [Compound 41, 2-[2-(3,4-dimethoxybenzoyl)-6-ethyl-3,5-dihydroxyphenyl]-1-(4-phenylpiperazin-1-yl)ethanone]
inhibited the binding of biotinylated Radicicol to the Hsp90 protein: more than 30%

CCc1c(O)cc(O)c(C(=O)c2ccc(OC)cc2)c1CC(=O)N(C)C [Compound 42, 2-[2-ethyl-3,5-dihydroxy-6-(4-methoxybenzoyl)phenyl]-N,N-dimethylacetamide]
inhibited the binding of biotinylated Radicicol to the Hsp90 protein: more than 30%

CCc1c(O)cc(O)c(C(=O)c2ccc(OC)cc2)c1CC(=O)N1CCOCC1 [Compound 44, 2-[2-ethyl-3,5-dihydroxy-6-(4-methoxybenzoyl)-phenyl]-1-morpholinoethanone]
inhibited the binding of biotinylated Radicicol to the Hsp90 protein: more than 30%

CCc1c(O)cc(O)c(C(=O)c2ccc(OC)cc2)c1CCOCC(O)CO (stereo not drawn) [Compound 46, 6-[2-(2,3-dihydroxypropyloxy)ethyl]-5-ethyl-2,4-dihydroxyphenyl=4 methoxyphenyl=ketone]
inhibited the binding of biotinylated Radicicol to the Hsp90 protein: more than 30%
